# Measured values: the supplement of paper PMC8728848
# The other results are listed elsewhere or left out.
# B1: CREG (Mus musculus), O88668 (protein)
# chain: MAARAPELARSLLAALLAPALVALLVSPASGRGGRDHGDWDVDRRLPPLPPREDGPRVARFVTHVSDWGSLATISTIKEVRGWPFADIISISDGPPGEGTGEPYMYLSPLQQAVSDLQENPEATLTMSLAQTVYCRNHGFDPQSPLCVHIMMSGTVTKVNKTEEDYARDSLFVRHPEMKHWPSSHNWFFAKLKISRIWVLDYFGGPKVVTPEEYFNVTLQ
# Tests used:
# Experiment in all cases: glycan array binding signal (z-score within array); higher = stronger binding
# Conditions in all cases: glycan notation: IUPAC condensed, linker removed
# [1] = biological target: Neu5Ac(a2-6)Gal
# Summary of the method: (§1)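 The binding signal is a Z-score computed within each array and averaged over linkers. Arrays of the same protein sequence at different concentrations or buffers were also averaged together. Data originate from 3228 arrays in the Consortium for Functional Glycomics database, kept only where the protein sequence was available.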
# [2] = biological target: Neu5Ac(a2-6)Gal(b1-4)Glc
# Summary of the method: as §1
# [3] = biological target: Neu5Ac(a2-6)Gal(b1-4)GlcNAc
# Summary of the method: as §1
# [4] = biological target: Neu5Ac(a2-6)Gal(b1-4)GlcNAc(b1-2)Man(a1-3)Man(b1-4)GlcNAc(b1-4)GlcNAc
# Summary of the method: as §1
# [5] = biological target: Neu5Ac(a2-6)Gal(b1-4)GlcNAc(b1-2)Man(a1-3)[Gal(b1-4)GlcNAc(b1-2)Man(a1-6)]Man(b1-4)GlcNAc(b1-4)GlcNAc
# Summary of the method: as §1
# [6] = biological target: Neu5Ac(a2-6)Gal(b1-4)GlcNAc(b1-2)Man(a1-3)[GlcNAc(b1-2)Man(a1-6)]Man(b1-4)GlcNAc(b1-4)GlcNAc
# Summary of the method: as §1
# [7] = biological target: Neu5Ac(a2-6)Gal(b1-4)GlcNAc(b1-2)Man(a1-3)[GlcNAc(b1-2)Man(b1-4)GlcNAc(b1-2)Man(a1-6)]Man(b1-4)GlcNAc(b1-4)GlcNAc
# Summary of the method: as §1
# [8] = biological target: Neu5Ac(a2-6)Gal(b1-4)GlcNAc(b1-2)Man(a1-3)[Man(a1-6)]Man(b1-4)GlcNAc(b1-4)GlcNAc
# Summary of the method: as §1
# [9] = biological target: Neu5Ac(a2-6)Gal(b1-4)GlcNAc(b1-2)Man(a1-3)[Neu5Ac(a2-6)Gal(b1-4)GlcNAc(b1-2)Man(a1-6)]Man(b1-4)GlcNAc(b1-4)GlcNAc
# Summary of the method: as §1
# [10] = biological target: Neu5Ac(a2-6)Gal(b1-4)GlcNAc(b1-2)Man(a1-6)Man(b1-4)GlcNAc(b1-4)GlcNAc
# Summary of the method: as §1
# [11] = biological target: Neu5Ac(a2-6)Gal(b1-4)GlcNAc(b1-2)Man(a1-6)[Gal(b1-4)GlcNAc(b1-2)Man(a1-3)]Man(b1-4)GlcNAc(b1-4)GlcNAc
# Summary of the method: as §1
# [12] = biological target: Neu5Ac(a2-6)Gal(b1-4)GlcNAc(b1-2)Man(a1-6)[GlcNAc(b1-2)Man(a1-3)]Man(b1-4)GlcNAc(b1-4)GlcNAc
# Summary of the method: as §1
# [13] = biological target: Neu5Ac(a2-6)Gal(b1-4)GlcNAc(b1-2)Man(a1-6)[Man(a1-3)]Man(b1-4)GlcNAc(b1-4)GlcNAc
# Summary of the method: as §1
# [14] = biological target: Neu5Ac(a2-6)Gal(b1-4)GlcNAc(b1-3)Gal(b1-3)GlcNAc
# Summary of the method: as §1
# [15] = biological target: Neu5Ac(a2-6)Gal(b1-4)GlcNAc(b1-3)Gal(b1-4)GlcNAc
# Summary of the method: as §1
# [16] = biological target: Neu5Ac(a2-6)Gal(b1-4)GlcNAc(b1-3)Gal(b1-4)GlcNAc(b1-3)Gal(b1-4)GlcNAc
# Summary of the method: as §1
# [17] = biological target: Neu5Ac(a2-6)Gal(b1-4)GlcNAc(b1-3)Gal(b1-4)[Fuc(a1-3)]GlcNAc(b1-3)Gal(b1-4)[Fuc(a1-3)]GlcNAc
# Summary of the method: as §1
# [18] = biological target: Neu5Ac(a2-6)Gal(b1-4)GlcNAc(b1-3)GalNAc
# Summary of the method: as §1
# [19] = biological target: Neu5Ac(a2-6)Gal(b1-4)GlcNAc6S
# Summary of the method: as §1
# [20] = biological target: Neu5Ac(a2-6)GalNAc
# Summary of the method: as §1
# [21] = biological target: Neu5Ac(a2-6)GalNAc(b1-4)GlcNAc
# Summary of the method: as §1
# [22] = biological target: Neu5Ac(a2-6)GlcNAc(b1-4)GlcNAc
# Summary of the method: as §1
# [23] = biological target: Neu5Ac(a2-6)GlcNAc(b1-4)GlcNAc(b1-4)GlcNAc
# Summary of the method: as §1
# [24] = biological target: Neu5Ac(a2-8)Neu5Ac
# Summary of the method: as §1
# [25] = biological target: Neu5Ac(a2-8)Neu5Ac(a2-3)Gal(b1-4)Glc
# Summary of the method: as §1
# [26] = biological target: Neu5Ac(a2-8)Neu5Ac(a2-3)[GalNAc(b1-4)]Gal(b1-4)Glc
# Summary of the method: as §1
# [27] = biological target: Neu5Ac(a2-8)Neu5Ac(a2-8)Neu5Ac
# Summary of the method: as §1
# [28] = biological target: Neu5Ac(a2-8)Neu5Ac(a2-8)Neu5Ac(a2-3)Gal(b1-4)Glc
# Summary of the method: as §1
# [29] = biological target: Neu5Ac(a2-8)Neu5Ac(a2-8)Neu5Ac(a2-3)[GalNAc(b1-4)]Gal(b1-4)Glc
# Summary of the method: as §1
# [30] = biological target: Neu5Ac(a2-8)Neu5Ac(a2-8)Neu5Ac(a2-8)Neu5Ac(a2-3)[GalNAc(b1-4)]Gal(b1-4)Glc
# Summary of the method: as §1
# [31] = biological target: Neu5Ac(b2-6)Gal(b1-4)GlcNAc
# Summary of the method: as §1
# [32] = biological target: Neu5Ac(b2-6)GalNAc
# Summary of the method: as §1
# [33] = biological target: Neu5Ac9Ac(a2-3)Gal(b1-3)GlcNAc
# Summary of the method: as §1
# [34] = biological target: Neu5Ac9Ac(a2-3)Gal(b1-4)GlcNAc
# Summary of the method: as §1
# [35] = biological target: Neu5Ac9Ac(a2-6)Gal(b1-4)GlcNAc
# Summary of the method: as §1
# [36] = biological target: Neu5Gc(a2-3)Gal(b1-3)GlcNAc
# Summary of the method: as §1
# [37] = biological target: Neu5Gc(a2-3)Gal(b1-3)[Fuc(a1-4)]GlcNAc
# Summary of the method: as §1
# [38] = biological target: Neu5Gc(a2-3)Gal(b1-4)Glc
# Summary of the method: as §1
# [39] = biological target: Neu5Gc(a2-3)Gal(b1-4)GlcNAc
# Summary of the method: as §1
# [40] = biological target: Neu5Gc(a2-3)Gal(b1-4)[Fuc(a1-3)]GlcNAc
# Summary of the method: as §1
# [41] = biological target: Neu5Gc(a2-6)Gal(b1-4)GlcNAc
# Summary of the method: as §1
# [42] = biological target: Neu5Gc(a2-6)GalNAc
# Summary of the method: as §1
# [43] = biological target: Neu5Gc(b2-6)Gal(b1-4)GlcNAc
# Summary of the method: as §1
binder,measurement,setting,value
B1,glycan array binding signal (z-score),[1],0.29
same,glycan array binding signal (z-score),[2],0.189
same,glycan array binding signal (z-score),[3],-0.48
same,glycan array binding signal (z-score),[4],1.54
same,glycan array binding signal (z-score),[5],-0.325
same,glycan array binding signal (z-score),[6],-0.763
same,glycan array binding signal (z-score),[7],0.109
same,glycan array binding signal (z-score),[8],0.369
same,glycan array binding signal (z-score),[9],0.505
same,glycan array binding signal (z-score),[10],-0.935
same,glycan array binding signal (z-score),[11],0.753
same,glycan array binding signal (z-score),[12],0.127
same,glycan array binding signal (z-score),[13],-1.28
same,glycan array binding signal (z-score),[14],-0.608
same,glycan array binding signal (z-score),[15],0.227
same,glycan array binding signal (z-score),[16],0.834
same,glycan array binding signal (z-score),[17],0.784
same,glycan array binding signal (z-score),[18],0.864
same,glycan array binding signal (z-score),[19],-1.25
same,glycan array binding signal (z-score),[20],-1.13
same,glycan array binding signal (z-score),[21],-1.24
same,glycan array binding signal (z-score),[22],-0.318
same,glycan array binding signal (z-score),[23],0.386
same,glycan array binding signal (z-score),[24],-0.211
same,glycan array binding signal (z-score),[25],-0.554
same,glycan array binding signal (z-score),[26],-0.305
same,glycan array binding signal (z-score),[27],-0.452
same,glycan array binding signal (z-score),[28],0.214
same,glycan array binding signal (z-score),[29],-0.505
same,glycan array binding signal (z-score),[30],-0.964
same,glycan array binding signal (z-score),[31],-0.415
same,glycan array binding signal (z-score),[32],0.312
same,glycan array binding signal (z-score),[33],-1.01
same,glycan array binding signal (z-score),[34],-0.288
same,glycan array binding signal (z-score),[35],1.57
same,glycan array binding signal (z-score),[36],0.557
same,glycan array binding signal (z-score),[37],-0.132
same,glycan array binding signal (z-score),[38],-0.929
same,glycan array binding signal (z-score),[39],0.882
same,glycan array binding signal (z-score),[40],-0.553
same,glycan array binding signal (z-score),[41],-0.759
same,glycan array binding signal (z-score),[42],0.064
same,glycan array binding signal (z-score),[43],0.145

# A different layout for part of the listing above.
binder | measurement | setting | value
B1 | glycan array binding signal (z-score) | [30] | -0.964
same | glycan array binding signal (z-score) | [34] | -0.288
